The results are deposited in PubChem (AID1159506; NCATS, 2015).

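Luminescence from an EWS-FLI1 target-promoter (NR0B1) reporter, set against a CMV-promoter reporter, two days after silencing single genes in TC32 Ewing sarcoma cells. Each siRNA was applied at 20 nM. A z-score of the log NR0B1-over-CMV signal, less the median of siRNAs with the same seed; more negative means a stronger specific loss of the NR0B1 reporter.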

The strongest results of the screen are mostly left out here. Sequences are the guide (antisense) strand, without overhang.

{"sirna": "UCUGUAAAAUGGGCGCAGG", "target gene": "LOC401296", "seed-corrected z-score": "-0.3858"}
{"sirna": "UCUGGAUUUAGCCUGACAG", "target gene": "IFIT1B", "seed-corrected z-score": "-0.09448"}
{"sirna": "UCUCGAGAUAGAAAGAGUC", "target gene": "TOLLIP", "seed-corrected z-score": "-0.02924"}
{"sirna": "UAUCCAUAUAUCAACAUUC", "target gene": "LEAP2", "seed-corrected z-score": "0.1899"}
{"sirna": "AAGGUUAGCAACACCACGC", "target gene": "CCL22", "seed-corrected z-score": "-0.8123"}
{"sirna": "UAGUGGAUCCCUUGGGUUC", "target gene": "FEN1", "seed-corrected z-score": "-0.2396"}
{"sirna": "UCAUCUGGUAGAACCUGCG", "target gene": "HS3ST6", "seed-corrected z-score": "-0.4693"}
{"sirna": "AACUGUAAUAAUAAGGAUG", "target gene": "ZNF827", "seed-corrected z-score": "-0.4326"}
{"sirna": "UUGAUCAUCACUCAUCACC", "target gene": "PABPC4L", "seed-corrected z-score": "-0.3146"}
{"sirna": "UGAGAUUUUGCAUAGAUCU", "target gene": "ZNF385C", "seed-corrected z-score": "0.5015"}
{"sirna": "UUAAUGUCCGGGUCCAGUC", "target gene": "ADAMTS15", "seed-corrected z-score": "-0.4379"}
{"sirna": "UCUGUUUGAGACUUGAGCC", "target gene": "RAB11FIP4", "seed-corrected z-score": "0.2259"}
{"sirna": "UCAGGGAAGAUAGAUGGAG", "target gene": "PRELP", "seed-corrected z-score": "1.31"}
{"sirna": "UUCGGUAUAUGAGACCAGG", "target gene": "NHS", "seed-corrected z-score": "0.1887"}
{"sirna": "UGUCUCUCCAGGUCAUUGC", "target gene": "SPNS3", "seed-corrected z-score": "-0.3057"}
{"sirna": "UUGGAGUACAGUCUACACC", "target gene": "TEX28", "seed-corrected z-score": "0.249"}
{"sirna": "AAGGGUCUCGCUGAAGACU", "target gene": "SST", "seed-corrected z-score": "0.7"}
{"sirna": "ACAUGGAAAAGUAGCCGGC", "target gene": "GIGYF1", "seed-corrected z-score": "0.173"}
{"sirna": "CUCCUUGUUGUCUUUCAUG", "target gene": "MXRA7", "seed-corrected z-score": "-1.447"}
{"sirna": "UUAGCUCAUAGCAGAACUU", "target gene": "PRSS50", "seed-corrected z-score": "-0.06871"}
{"sirna": "AGGUGUUACAGAGAGAGCC", "target gene": "GIF", "seed-corrected z-score": "-0.8601"}
{"sirna": "UGUUGUAGAAGUGAGGGCU", "target gene": "FOXI1", "seed-corrected z-score": "-1.309"}
{"sirna": "UCUUGUAGCUCUCAUAGGC", "target gene": "C11orf24", "seed-corrected z-score": "0.5556"}
{"sirna": "AUCUUUAGCAUCUUAUCCC", "target gene": "WDR12", "seed-corrected z-score": "-0.8484"}
{"sirna": "UUUGAUCUGAGGUCGUGUC", "target gene": "ACBD3", "seed-corrected z-score": "-0.2613"}
{"sirna": "UAUCAUAAAUAGCUGGAUG", "target gene": "SAAL1", "seed-corrected z-score": "-0.02965"}
{"sirna": "UUGGGUUCGAGUUUAAGGG", "target gene": "HLX", "seed-corrected z-score": "-1.862"}
{"sirna": "ACACUGACAGGUCAAAGGC", "target gene": "ASMT", "seed-corrected z-score": "-0.7291"}
{"sirna": "UUACAAGUAGGUGCUGGGC", "target gene": "ENTPD2", "seed-corrected z-score": "1.67"}

3 of the entries, repeated:

- AACUGUAAUAAUAAGGAUG against ZNF827 : seed-corrected z-score -0.4326
- UUGGGUUCGAGUUUAAGGG against HLX : seed-corrected z-score -1.862
- ACAUGGAAAAGUAGCCGGC against GIGYF1 : seed-corrected z-score 0.173